This data set deals with mSWI/SNF complexes. As to the kind of experiment: mSWI/SNF complex purification with HA-tagged baits and mass spectrometry (peptide counts). To be noted: 293_HA-BRD7 bait purification, mass spectrometry; for Total: total peptide count per identified protein; for Unique: unique peptide count per identified protein. Set-up: species or system human.

B1: TMTC3 (protein, UniProt Q6ZXV5 1-915, looked up)
Protein …: MANINLKEITLIVGVVTACYWNSLFCGFVFDDVSAILDNKDLHPSTPLKTLFQNDFWGTPMSEERSHKSYRPLTVLTFRLNYLLSELKPMSYHLLNMIFHAVVSVIFLKVCKLFLDNKSSVIASLLFAVHPIHTEAVTGVVGRAELLSSIFFLAAFLSYTRSKGPDNSIIWTPIALTVFLVAVATLCKEQGITVVGICCVYEVFIAQGYTLPLLCTTAGQFLRGKGSIPFSMLQTLVKLIVLMFSTLLLVVIRVQVIQSQLPVFTRFDNPAAVSPTPTRQLTFNYLLPVNAWLLLNPSELCCDWTMGTIPLIESLLDIRNLATFTFFCFLGMLGVFSIRYSGDSSKTVLMALCLMALPFIPASNLFFPVGFVVAERVLYVPSMGFCILVAHGWQKISTKSVFKKLSWICLSMVILTHSLKTFHRNWDWESEYTLFMSALKVNKNNAKLWNNVGHALENEKNFERALKYFLQATHVQPDDIGAHMNVGRTYKNLNRTKEAEESYMMAKSLMPQIIPGKKYAARIAPNHLNVYINLANLIRANESRLEEADQLYRQAISMRPDFKQAYISRGELLLKMNKPLKAKEAYLKALELDRNNADLWYNLAIVHIELKEPNEALKKNFNRALELNPKHKLALFNSAIVMQESGEVKLRPEARKRLLSYINEEPLDANGYFNLGMLAMDDKKDNEAEIWMKKAIKLQADFRSALFNLALLYSQTAKELKALPILEELLRYYPDHIKGLILKGDILMNQKKDILGAKKCFERILEMDPSNVQGKHNLCVVYFEEKDLLKAERCLLETLALAPHEEYIQRHLNIVRDKISSSSFIEPIFPTSKISSVEGKKIPTESVKEIRGESRQTQIVKTSDNKSQSKSNKQLGKNGDEETPHKTTKDIKEIEKKRVAALKRLEEIERILNGE
Regarding B1, the Total is on record as 1 and the Unique turned out to be 1.

B2: SRP68 (protein, UniProt Q9UHB9 1-627, looked up)
Signal recognition particle …: MAAEKQVPGGGGGGGSGGGGGSGGGGSGGGRGAGGEENKENERPSAGSKANKEFGDSLSLEILQIIKESQQQHGLRHGDFQRYRGYCSRRQRRLRKTLNFKMGNRHKFTGKKVTEELLTDNRYLLLVLMDAERAWSYAMQLKQEANTEPRKRFHLLSRLRKAVKHAEELERLCESNRVDAKTKLEAQAYTAYLSGMLRFEHQEWKAAIEAFNKCKTIYEKLASAFTEEQAVLYNQRVEEISPNIRYCAYNIGDQSAINELMQMRLRSGGTEGLLAEKLEALITQTRAKQAATMSEVEWRGRTVPVKIDKVRIFLLGLADNEAAIVQAESEETKERLFESMLSECRDAIQVVREELKPDQKQRDYILEGEPGKVSNLQYLHSYLTYIKLSTAIKRNENMAKGLQRALLQQQPEDDSKRSPRPQDLIRLYDIILQNLVELLQLPGLEEDKAFQKEIGLKTLVFKAYRCFFIAQSYVLVKKWSEALVLYDRVLKYANEVNSDAGAFKNSLKDLPDVQELITQVRSEKCSLQAAAILDANDAHQTETSSSQVKDNKPLVERFETFCLDPSLVTKQANLVHFPPGFQPIPCKPLFFDLALNHVAFPPLEDKLEQKTKSGLTGYIKGIFGFRS
Turning to B2, the Total came to 1 and the Unique is recorded as 1.

B3: SETSIP (protein, UniProt P0DME0 1-292, looked up)
Protein SETSIP: MAPKRQSPLPLQKKKPRPPPALGLEETSASAGLPKKGEKEQQEAIEHIDEVQNEIDRLNEQDSEEILKVEQKYNKLRQPFFQKRSELIAKIPNFGVTTFVNHPQVSSLLGEEDEEALHYLTKVEVTEFEDIKSGYRIDFYFDENPYFENKVFSKEFHLNESGDPSSKSTKIKWKSGKDVTKRSSQTQNKASRKRQHEEPESFFTWFTDHSDAGADELEEVIKDDIWPNPLQYYLVPDMDDEEGGEDDDDDDDDGDEGEEELEDIDEGDEDEGEEDEDDDEGEEGEEDEGEDD
On to B3, for which the Total is given as 1 and the Unique was 1.

B4: STT3B (protein, UniProt Q8TCJ2 2-826, looked up)
Dolichyl-diphosphooligosacchar …: AEPSAPESKHKSSLNSSPWSGLMALGNSRHGHHGPGAQCAHKAAGGAAPPKPAPAGLSGGLSQPAGWQSLLSFTILFLAWLAGFSSRLFAVIRFESIIHEFDPWFNYRSTHHLASHGFYEFLNWFDERAWYPLGRIVGGTVYPGLMITAGLIHWILNTLNITVHIRDVCVFLAPTFSGLTSISTFLLTRELWNQGAGLLAACFIAIVPGYISRSVAGSFDNEGIAIFALQFTYYLWVKSVKTGSVFWTMCCCLSYFYMVSAWGGYVFIINLIPLHVFVLLLMQRYSKRVYIAYSTFYIVGLILSMQIPFVGFQPIRTSEHMAAAGVFALLQAYAFLQYLRDRLTKQEFQTLFFLGVSLAAGAVFLSVIYLTYTGYIAPWSGRFYSLWDTGYAKIHIPIIASVSEHQPTTWVSFFFDLHILVCTFPAGLWFCIKNINDERVFVALYAISAVYFAGVMVRLMLTLTPVVCMLSAIAFSNVFEHYLGDDMKRENPPVEDSSDEDDKRNQGNLYDKAGKVRKHATEQEKTEEGLGPNIKSIVTMLMLMLLMMFAVHCTWVTSNAYSSPSVVLASYNHDGTRNILDDFREAYFWLRQNTDEHARVMSWWDYGYQIAGMANRTTLVDNNTWNNSHIALVGKAMSSNETAAYKIMRTLDVDYVLVIFGGVIGYSGDDINKFLWMVRIAEGEHPKDIRESDYFTPQGEFRVDKAGSPTLLNCLMYKMSYYRFGEMQLDFRTPPGFDRTRNAEIGNKDIKFKHLEEAFTSEHWLVRIYKVKAPDNRETLDHKPRVTNIFPKQKYLSKKTTKRKRGYIKNKLVFKKGKKISKKTV
For B4, the Total amounted to 1 and the Unique was 1.

B5: ASNS (protein, UniProt P08243 2-561, looked up)
Asparagine synthetase …: CGIWALFGSDDCLSVQCLSAMKIAHRGPDAFRFENVNGYTNCCFGFHRLAVVDPLFGMQPIRVKKYPYLWLCYNGEIYNHKKMQQHFEFEYQTKVDGEIILHLYDKGGIEQTICMLDGVFAFVLLDTANKKVFLGRDTYGVRPLFKAMTEDGFLAVCSEAKGLVTLKHSATPFLKVEPFLPGHYEVLDLKPNGKVASVEMVKYHHCRDVPLHALYDNVEKLFPGFEIETVKNNLRILFNNAVKKRLMTDRRIGCLLSGGLDSSLVAATLLKQLKEAQVQYPLQTFAIGMEDSPDLLAARKVADHIGSEHYEVLFNSEEGIQALDEVIFSLETYDITTVRASVGMYLISKYIRKNTDSVVIFSGEGSDELTQGYIYFHKAPSPEKAEEESERLLRELYLFDVLRADRTTAAHGLELRVPFLDHRFSSYYLSLPPEMRIPKNGIEKHLLRETFEDSNLIPKEILWRPKEAFSDGITSVKNSWFKILQEYVEHQVDDAMMANAAQKFPFNTPKTKEGYYYRQVFERHYPGRADWLSHYWMPKWINATDPSARTLTHYKSAVKA
In turn, B5 showed a Total of 1 and a Unique of 1.

B6: RBM26 (protein, UniProt Q5T8P6 1-1007, looked up)
RNA-binding protein 26: MVSKMIIENFEALKSWLSKTLEPICDADPSALAKYVLALVKKDKSEKELKALCIDQLDVFLQKETQIFVEKLFDAVNTKSYLPPPEQPSSGSLKVEFFPHQEKDIKKEEITKEEEREKKFSRRLNHSPPQSSSRYRENRSRDERKKDDRSRKRDYDRNPPRRDSYRDRYNRRRGRSRSYSRSRSRSWSKERLRERDRDRSRTRSRSRTRSRERDLVKPKYDLDRTDPLENNYTPVSSVPSISSGHYPVPTLSSTITVIAPTHHGNNTTESWSEFHEDQVDHNSYVRPPMPKKRCRDYDEKGFCMRGDMCPFDHGSDPVVVEDVNLPGMLPFPAQPPVVEGPPPPGLPPPPPILTPPPVNLRPPVPPPGPLPPSLPPVTGPPPPLPPLQPSGMDAPPNSATSSVPTVVTTGIHHQPPPAPPSLFTADTYDTDGYNPEAPSITNTSRPMYRHRVHAQRPNLIGLTSGDMDLPPREKPPNKSSMRIVVDSESRKRTIGSGEPGVPTKKTWFDKPNFNRTNSPGFQKKVQFGNENTKLELRKVPPELNNISKLNEHFSRFGTLVNLQVAYNGDPEGALIQFATYEEAKKAISSTEAVLNNRFIKVYWHREGSTQQLQTTSPKVMQPLVQQPILPVVKQSVKERLGPVPSSTIEPAEAQSASSDLPQNVTKLSVKDRLGFVSKPSVSATEKVLSTSTGLTKTVYNPAALKAAQKTLLVSTSAVDNNEAQKKKQEALKLQQDVRKRKQEILEKHIETQKMLISKLEKNKTMKSEDKAEIMKTLEVLTKNITKLKDEVKAASPGRCLPKSIKTKTQMQKELLDTELDLYKKMQAGEEVTELRRKYTELQLEAAKRGILSSGRGRGIHSRGRGAVHGRGRGRGRGRGVPGHAVVDHRPRALEISAFTESDREDLLPHFAQYGEIEDCQIDDSSLHAVITFKTRAEAEAAAVHGARFKGQDLKLAWNKPVTNISAVETEEVEPDEEEFQEESLVDDSLLQDDDEEEEDNESRSWRR
On to B6, for which the Total came out at 1 and the Unique was 1.

B7: ADAR (protein, UniProt P55265 1-1226, looked up)
Double-stranded RNA-specific …: MNPRQGYSLSGYYTHPFQGYEHRQLRYQQPGPGSSPSSFLLKQIEFLKGQLPEAPVIGKQTPSLPPSLPGLRPRFPVLLASSTRGRQVDIRGVPRGVHLRSQGLQRGFQHPSPRGRSLPQRGVDCLSSHFQELSIYQDQEQRILKFLEELGEGKATTAHDLSGKLGTPKKEINRVLYSLAKKGKLQKEAGTPPLWKIAVSTQAWNQHSGVVRPDGHSQGAPNSDPSLEPEDRNSTSVSEDLLEPFIAVSAQAWNQHSGVVRPDSHSQGSPNSDPGLEPEDSNSTSALEDPLEFLDMAEIKEKICDYLFNVSDSSALNLAKNIGLTKARDINAVLIDMERQGDVYRQGTTPPIWHLTDKKRERMQIKRNTNSVPETAPAAIPETKRNAEFLTCNIPTSNASNNMVTTEKVENGQEPVIKLENRQEARPEPARLKPPVHYNGPSKAGYVDFENGQWATDDIPDDLNSIRAAPGEFRAIMEMPSFYSHGLPRCSPYKKLTECQLKNPISGLLEYAQFASQTCEFNMIEQSGPPHEPRFKFQVVINGREFPPAEAGSKKVAKQDAAMKAMTILLEEAKAKDSGKSEESSHYSTEKESEKTAESQTPTPSATSFFSGKSPVTTLLECMHKLGNSCEFRLLSKEGPAHEPKFQYCVAVGAQTFPSVSAPSKKVAKQMAAEEAMKALHGEATNSMASDNQPEGMISESLDNLESMMPNKVRKIGELVRYLNTNPVGGLLEYARSHGFAAEFKLVDQSGPPHEPKFVYQAKVGGRWFPAVCAHSKKQGKQEAADAALRVLIGENEKAERMGFTEVTPVTGASLRRTMLLLSRSPEAQPKTLPLTGSTFHDQIAMLSHRCFNTLTNSFQPSLLGRKILAAIIMKKDSEDMGVVVSLGTGNRCVKGDSLSLKGETVNDCHAEIISRRGFIRFLYSELMKYNSQTAKDSIFEPAKGGEKLQIKKTVSFHLYISTAPCGDGALFDKSCSDRAMESTESRHYPVFENPKQGKLRTKVENGEGTIPVESSDIVPTWDGIRLGERLRTMSCSDKILRWNVLGLQGALLTHFLQPIYLKSVTLGYLFSQGHLTRAICCRVTRDGSAFEDGLRHPFIVNHPKVGRVSIYDSKRQSGKTKETSVNWCLADGYDLEILDGTRGTVDGPRNELSRVSKKNIFLLFKKLCSFRYRRDLLRLSYGEAKKAARDYETAKNYFKKGLKDMGYGNWISKPQEEKNFYLCPV
As to B7, the Total was 1 and the Unique was found to be 1.

Values taken from patent US12729225B2, “Non-canonical SWI/SNF complex and uses thereof” (Dana-Farber Cancer Institute, Inc., priority 2018, dated 2026).
